Laboratory results as given in the supplement of paper PMC10338343.
± gives the standard deviation. This is a selection; strong and weak results do not stand in their true shares. Many entries were measured with a wide error.

system: MILI (PIWIL2) piRISC loaded with piRNA #1 (26 nt); assay: pre-steady-state target cleavage rate (min^-1); MIWI and MILI are mouse PIWI proteins and EfPiwi is from a freshwater sponge; tags in brackets are library labels; higher = faster piRNA-guided slicing of the target; conditions: guide: piRNA #1 5'p-UGAGGUAGUAGGUUGUAUAGUAUCCA; auxiliary factor: 500 nM mouse GTSF1
Procedure, shortened: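 A transcribed, DNA-blocked target RNA library […] was incubated at 33 °C for 0–8 or 0–960 min with 1 nM active affinity-purified piRISC carrying one synthetic guide, in HEPES–potassium acetate buffer with or without 500 nM GTSF1 partner protein. Uncleaved targets were then sequenced and normalised to depth and to weakly complementary targets. Data from three trials were pooled, with k3 capped at 0.0001 min^-1, and a burst-and-steady-state fit yielded the pre-steady-state cleavage rate.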
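Also: 1 nM active piRISC with 0.1 nM target library at 33 °C single turnover.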

Sequence | pre-steady-state target cleavage rate
GGAGUGGAUACUAUACUACCUACUACCACA | 0.143 ± 0.013
GGAGACCUAUGAUAUGUACCUACAACCUCA | 0.000104 ± 0.019
GGAGACCUUACUAUUGAACCUACUACCUCA | 0.137 ± 0.013
GGAGACCAUACUAUACAACCUAGUACCUCA | 0.0657 ± 0.013
GGAGACCUAACUAAACAACCUUCUACCUCA | 0.00364 ± 0.0053
GGAGAGGAUUACUAUACAACCUACUACCUCA | 0.132 ± 0.0095
GGAGACCUUAGAAUACAACCUACUACCUCA | 0.011 ± 0.004
GGAGACGAACUAUACAACCUACUACCUCA | 0.138 ± 0.012
GGAGACCUAUGAUUACUAGCUACUACCUCA | 0.00253 ± 0.003
GGAGACCUAACUAUACAACCUAGUACGUCA | 0.00131 ± 0.0098
GGAGACCUAUGAUAUGAACUUACUACCUCA | 0.00034 ± 0.013
GGAGUGGAUUCUAUACUACCUACUACCUCA | 0.155 ± 0.0078
GGAGACGAUACUAUAGUACCUACUACCUCA | 0.193 ± 0.013
GGAGACCUAUGAAUUCAUCCUACUACCUCA | 0.00131 ± 0.0042
GGAGACCAUACUAUUCAUCCUACUACCUCA | 0.271 ± 0.019
GGAGACCUAUGAUAUGUACCUACGUACCUCA | 0.000499 ± 0.011
GGAGACCUAUGAUUACAACCUACUAGGAGA [g6:g17:cont:t1A] | 0.000594 ± 0.0095
GGAGACGAUACUAUACAACCUUCUAGCUCA | 0.0027 ± 0.0031
GGAGACCAUACUAUACUUCCUACUACCUCA | 0.226 ± 0.021
GGAGACCUAUGUAUACAACCAAGUACCUCA | 0.00246 ± 0.0031

Sequence | pre-steady-state target cleavage rate
GGAGACGAAACUAUACAACCAACUACCUCA | 0.00424 ± 0.0046
GGAGACCUAUGAUAUGUUCCUACUACCUCU [g2:g12:cont:t1U] | < 0.0001
GGAGUGGAUACUAUACAUACCUACUACCUCA | 0.00115 ± 0.0071
GGAGACGAUACUAUACAACCUACGACCUCA | 0.146 ± 0.019
GGAGACCAAACUAUACAACCUUCUACCUCA | 0.00275 ± 0.0079
GGAGACGAUACUAUACUACCUACUACGUCA | 0.138 ± 0.019
GGAGACCUAUGAUAUCAAGCUACUAGCUCA | 0.000934 ± 0.0072
GGAGACGAUUCUAUACAACCUACUACCACA | 0.219 ± 0.015
GGAGACCAUACUAUACAACCUACAUGGAGA [g8:g23:cont:t1A] | 0.00198 ± 0.0058
GGAGUGGAAACUAAACAACCUACUACCUCA | 0.201 ± 0.02
GGAGACCUAUGAUAUCAAGCUAGUACCUCA | 0.000951 ± 0.008
GGAGACCUAUGAUAACAACCAUGAUGGAGA [g11:g16:cont:t1A] | 0.00012 ± 0.023
GGAGACCUAUGAUAUGUAGCAACUACCUCA | 0.000133 ± 0.015
GGAGACCUAUGAAUACUACCUAGUACCUCA | 0.00059 ± 0.0097
GGAGACCUAUCUAUACAACCUACUACCUACA | 0.0858 ± 0.015
GGAGACCUUACUAUACAACUCUACUACCUCA | 0.000634 ± 0.0089
GGAGACCUAACUAUACAACCUACUCCCUCA | 0.0941 ± 0.022
GGAGACCUUAUCUAUACAACCUACUACCUCA | 0.115 ± 0.014
GGAGACCUAUGAUAUGAACCAACUACCUCA | 0.000275 ± 0.009
GGAGACCUAUGAUAACAACCUACUAGCACA | 0.000776 ± 0.0069

Looked up above:
GGAGACCUUAUCUAUACAACCUACUACCUCA – pre-steady-state target cleavage rate: 0.115 ± 0.014
GGAGACGAAACUAUACAACCAACUACCUCA – pre-steady-state target cleavage rate: 0.00424 ± 0.0046
GGAGACGAUUCUAUACAACCUACUACCACA – pre-steady-state target cleavage rate: 0.219 ± 0.015
